For one molecule, binding results are on record in publication PMC11892261.

Amino acid sequences for entries named in this document (tags omitted). A change or cut given only in a name is not applied to a line headed by its entry.
UniProt P14618: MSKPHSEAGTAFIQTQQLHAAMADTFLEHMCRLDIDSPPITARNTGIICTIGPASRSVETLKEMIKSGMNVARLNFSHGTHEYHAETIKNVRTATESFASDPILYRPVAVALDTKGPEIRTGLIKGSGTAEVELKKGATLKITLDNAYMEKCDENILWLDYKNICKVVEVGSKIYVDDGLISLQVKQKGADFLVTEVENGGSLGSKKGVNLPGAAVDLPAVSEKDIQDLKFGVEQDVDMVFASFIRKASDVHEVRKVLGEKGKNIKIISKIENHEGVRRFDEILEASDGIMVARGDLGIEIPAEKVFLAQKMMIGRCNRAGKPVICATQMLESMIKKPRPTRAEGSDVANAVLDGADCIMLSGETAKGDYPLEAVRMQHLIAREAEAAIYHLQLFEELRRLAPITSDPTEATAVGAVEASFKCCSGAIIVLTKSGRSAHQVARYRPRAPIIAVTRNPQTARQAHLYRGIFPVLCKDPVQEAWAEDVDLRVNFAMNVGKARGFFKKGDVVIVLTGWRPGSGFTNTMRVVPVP

Results are given in words; binding and its absence hold for the method and conditions named. Binding seen in cells or lysates may run through a third protein. Some results given as binding are weak or reduced against the parent protein; the word gives no strength.

For one assay, the target named is Flag-tagged PKM2-S406A (UniProt P14618). Briefly: co-IP; anti-Flag M2 Sepharose beads on lysates of MDA-MB-231 and BT-549 cells overexpressing the Flag-tagged protein; endogenous partner found by blot; IgG as negative control.
Assay [1] has as its target PKM2-Flag (Flag-tagged PKM2-WT) (UniProt P14618). Described as above.

B1: NONO (non-POU domain-containing octamer-binding protein), endogenous (protein, UniProt Q15233 1-471)
chain: MQSNKTFNLEKQNHTPRKHHQHHHQQQHHQQQQQQPPPPPIPANGQQASSQNEGLTIDLKNFRKPGEKTFTQRSRLFVGNLPPDITEEEMRKLFEKYGKAGEVFIHKDKGFGFIRLETRTLAEIAKVELDNMPLRGKQLRVRFACHSASLTVRNLPQYVSNELLEEAFSVFGQVERAVVIVDDRGRPSGKGIVEFSGKPAARKALDRCSEGSFLLTTFPRPVTVEPMDQLDDEEGLPEKLVIKNQQFHKEREQPPRFAQPGSFEYEYAMRWKALIEMEKQQQDQVDRNIKEAREKLEMEMEAARHEHQVMLMRQDLMRRQEELRRMEELHNQEVQKRKQLELRQEEERRRREEEMRRQQEEMMRRQQEGFKGTFPDAREQEIRMGQMAMGGAMGINNRGAMPPAPVPAGTPAPPGPATMMPDGTLGLTPPTTERFGQAATMEGIGAIGGTPPAFNRAAPGAEFAPNKRRRY
For B1, the binding result (in the assay with Flag-tagged PKM2-S406A; in assay [1]) was “binds” each time.
